What all share (experiment): log2 fold change, soluble protein after heating vs DMSO (PISA); higher = thermal stabilisation; K562 cells, 10 uM, 30 min; active = over 0.2 and 3.5 SD of the protein, either way, in both replicates (recomputed)
Compound in assay [1]: CS(=O)(=O)c1ccc(-c2cnc(N)c(C(=O)Nc3ccccc3)n2)cc1
An outline of the steps:
(§1)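 Thermal stability values are relative to control samples and come from duplicates. They are expressed as log2 fold changes. For measurement, K562 cells (2×10^6 cells/mL) received 10 μM compound for 30 min, and aliquots were heated for 3 min over 48°C-58°C, pooled, and extracted at 4°C in PBS with 0.5% NP-40. Soluble protein, the supernatant after 21,000xg for 90 min, was quantified by TMTpro 16plex LC-MS/MS with equalised channel sums.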

Protein sequences, listed by entry. Tags and fused reporters are not part of them. Lines headed by an entry give the natural chain unless they say otherwise; changes in a name come on top.
UniProt Q13296: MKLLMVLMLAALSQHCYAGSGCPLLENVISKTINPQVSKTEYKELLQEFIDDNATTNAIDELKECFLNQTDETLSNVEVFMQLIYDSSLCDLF
UniProt P23297: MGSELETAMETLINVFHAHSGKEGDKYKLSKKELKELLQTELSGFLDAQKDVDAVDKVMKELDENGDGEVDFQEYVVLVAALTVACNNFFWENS
UniProt O75056, whole entry, looked up: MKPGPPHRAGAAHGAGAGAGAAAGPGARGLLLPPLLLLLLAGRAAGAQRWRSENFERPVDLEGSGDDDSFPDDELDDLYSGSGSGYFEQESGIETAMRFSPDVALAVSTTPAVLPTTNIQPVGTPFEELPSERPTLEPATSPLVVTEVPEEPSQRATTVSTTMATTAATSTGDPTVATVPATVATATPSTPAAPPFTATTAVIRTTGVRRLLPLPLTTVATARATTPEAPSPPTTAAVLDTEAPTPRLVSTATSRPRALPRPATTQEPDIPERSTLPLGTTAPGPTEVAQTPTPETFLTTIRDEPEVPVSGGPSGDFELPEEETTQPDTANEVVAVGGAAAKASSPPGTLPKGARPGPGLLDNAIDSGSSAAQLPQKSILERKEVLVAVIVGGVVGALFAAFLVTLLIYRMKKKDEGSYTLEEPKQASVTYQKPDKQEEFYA
UniProt O00560: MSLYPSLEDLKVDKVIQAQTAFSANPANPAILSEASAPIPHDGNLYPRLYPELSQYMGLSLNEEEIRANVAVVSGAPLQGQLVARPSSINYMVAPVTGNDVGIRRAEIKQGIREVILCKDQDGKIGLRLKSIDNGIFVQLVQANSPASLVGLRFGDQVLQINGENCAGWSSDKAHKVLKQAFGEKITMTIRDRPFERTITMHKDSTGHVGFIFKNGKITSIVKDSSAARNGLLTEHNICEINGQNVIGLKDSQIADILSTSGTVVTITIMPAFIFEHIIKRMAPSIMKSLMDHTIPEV
UniProt Q96T51: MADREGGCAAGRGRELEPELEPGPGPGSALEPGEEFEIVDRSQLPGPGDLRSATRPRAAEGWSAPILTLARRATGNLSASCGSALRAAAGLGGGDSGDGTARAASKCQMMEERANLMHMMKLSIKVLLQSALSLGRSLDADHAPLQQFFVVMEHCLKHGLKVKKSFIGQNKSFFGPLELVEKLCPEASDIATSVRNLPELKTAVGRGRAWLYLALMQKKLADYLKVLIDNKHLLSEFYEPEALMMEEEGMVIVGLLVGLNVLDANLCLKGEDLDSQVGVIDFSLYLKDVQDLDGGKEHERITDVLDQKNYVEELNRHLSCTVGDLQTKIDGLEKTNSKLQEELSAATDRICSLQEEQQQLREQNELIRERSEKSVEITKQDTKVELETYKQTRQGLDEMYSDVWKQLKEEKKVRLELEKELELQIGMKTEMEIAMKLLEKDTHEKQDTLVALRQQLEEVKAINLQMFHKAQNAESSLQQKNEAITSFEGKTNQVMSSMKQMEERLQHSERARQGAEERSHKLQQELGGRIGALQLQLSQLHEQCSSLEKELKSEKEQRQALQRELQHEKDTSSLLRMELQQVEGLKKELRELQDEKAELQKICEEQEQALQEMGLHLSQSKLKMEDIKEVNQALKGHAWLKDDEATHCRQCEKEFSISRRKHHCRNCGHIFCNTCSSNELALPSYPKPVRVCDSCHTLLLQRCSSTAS
UniProt Q14684: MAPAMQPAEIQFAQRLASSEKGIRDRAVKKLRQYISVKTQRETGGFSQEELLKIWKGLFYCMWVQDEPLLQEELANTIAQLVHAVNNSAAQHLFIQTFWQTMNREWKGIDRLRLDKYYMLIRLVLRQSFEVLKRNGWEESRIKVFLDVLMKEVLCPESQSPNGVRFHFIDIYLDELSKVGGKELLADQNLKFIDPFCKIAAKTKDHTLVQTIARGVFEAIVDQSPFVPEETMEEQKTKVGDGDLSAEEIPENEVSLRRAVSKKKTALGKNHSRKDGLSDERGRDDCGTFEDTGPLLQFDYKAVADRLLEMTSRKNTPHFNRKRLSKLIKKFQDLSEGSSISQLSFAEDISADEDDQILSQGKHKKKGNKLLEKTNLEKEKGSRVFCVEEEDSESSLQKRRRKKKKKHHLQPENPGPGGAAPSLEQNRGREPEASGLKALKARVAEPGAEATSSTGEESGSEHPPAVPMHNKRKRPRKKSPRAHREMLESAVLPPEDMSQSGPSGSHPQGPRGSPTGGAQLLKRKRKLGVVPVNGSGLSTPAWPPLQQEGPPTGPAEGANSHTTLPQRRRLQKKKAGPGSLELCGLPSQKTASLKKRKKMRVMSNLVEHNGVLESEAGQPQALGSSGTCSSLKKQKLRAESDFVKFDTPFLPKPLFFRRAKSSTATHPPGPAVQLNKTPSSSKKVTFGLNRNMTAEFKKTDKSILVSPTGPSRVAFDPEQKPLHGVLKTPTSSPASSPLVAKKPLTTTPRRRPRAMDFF
UniProt Q9NSI8: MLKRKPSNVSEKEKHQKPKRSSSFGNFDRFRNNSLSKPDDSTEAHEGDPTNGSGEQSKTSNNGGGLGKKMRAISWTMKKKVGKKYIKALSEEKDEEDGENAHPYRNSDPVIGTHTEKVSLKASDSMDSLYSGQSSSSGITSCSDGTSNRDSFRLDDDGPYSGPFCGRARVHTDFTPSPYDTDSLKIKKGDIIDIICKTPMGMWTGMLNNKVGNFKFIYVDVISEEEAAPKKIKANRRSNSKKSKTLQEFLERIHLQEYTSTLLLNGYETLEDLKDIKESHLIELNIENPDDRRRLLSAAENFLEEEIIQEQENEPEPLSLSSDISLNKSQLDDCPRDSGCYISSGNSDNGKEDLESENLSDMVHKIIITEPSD
UniProt Q9HB40: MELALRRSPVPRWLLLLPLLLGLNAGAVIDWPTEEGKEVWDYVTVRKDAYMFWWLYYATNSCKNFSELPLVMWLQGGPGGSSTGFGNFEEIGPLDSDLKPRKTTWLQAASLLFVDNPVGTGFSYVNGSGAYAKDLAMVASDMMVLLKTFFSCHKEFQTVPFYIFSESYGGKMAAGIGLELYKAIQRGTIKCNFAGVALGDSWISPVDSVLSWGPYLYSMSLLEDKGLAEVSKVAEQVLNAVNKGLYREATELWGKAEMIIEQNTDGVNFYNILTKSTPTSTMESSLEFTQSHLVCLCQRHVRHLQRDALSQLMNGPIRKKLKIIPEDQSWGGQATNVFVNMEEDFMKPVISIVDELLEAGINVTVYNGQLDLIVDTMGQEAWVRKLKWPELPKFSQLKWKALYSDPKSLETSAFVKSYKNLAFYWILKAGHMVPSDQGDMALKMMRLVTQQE

Compound in a further assay: C[C@@H](Oc1cc(-c2cnn(C3CCNCC3)c2)cnc1N)c1c(Cl)ccc(F)c1Cl [crizotinib]
A digest of the protocol: as §1

Compound in assay [2]: C[C@@H]1COCCN1C2=NC(=NC(=C2)C3(CC3)S(=O)(=O)C)C4=C5C=CNC5=CC=C4
An outline of the steps:
as §1

Compound in a further assay: Cc1cc(Nc2cc(CN3CCOCC3)c3nc(C)c(Cc4ccc(Cl)cc4F)n3n2)n[nH]1 [gandotinib]
An outline of the steps: as §1

Compound in the next assay: Cc1cc(Nc2cc(N3CCN(C)CC3)nc(Sc3ccc(NC(=O)C4CC4)cc3)n2)n[nH]1 [tozasertib]
An outline of the steps:
as §1

Compound in another assay: Cc1ccc(-n2nc(C(C)(C)C)cc2NC(=O)Nc2ccc(OCCN3CCOCC3)c3ccccc23)cc1 [doramapimod]
An outline of the steps: as §1

Compound in another assay: Cc1ccc(NC(=O)c2ccc(CN3CC[C@H](N(C)C)C3)c(C(F)(F)F)c2)cc1Nc1nccc(-c2cncnc2)n1 [bafetinib]
An outline of the steps:
as §1

Compound in assay [3]: Cc1cccc(CC(=O)N2CCc3c2ccc(-c2cn(C)c4ncnc(N)c24)c3F)n1
An outline of the steps:
as §1

Compound in the next assay: Cc1cn(-c2cc(NC(=O)c3ccc(C)c(Nc4nccc(-c5cccnc5)n4)c3)cc(C(F)(F)F)c2)cn1 [nilotinib]
A digest of the protocol:
as §1

Compound in assay [4]: Cc1nc(Nc2n[nH]c3c2CN(C(=O)N[C@H](CN(C)C)c2ccccc2)C3(C)C)c2sccc2n1
An outline of the steps:
as §1

Compound in assay [5]: Cc1ncc(-c2ccnc(Nc3ccc(S(C)(=O)=O)cc3)n2)n1C(C)C
A digest of the protocol:
as §1

Compound in the next assay: Cn1cncc1[C@@](N)(c1ccc(Cl)cc1)c1ccc2c(c1)c(-c1cccc(Cl)c1)cc(=O)n2C [tipifarnib]
An outline of the steps: as §1

Compound in the next assay: FC(F)(F)c1ccc(/C=C/c2nc(COc3ccc(CCCCn4ccnn4)cc3)co2)cc1 [mubritinib]
An outline of the steps: as §1

Compound in another assay: Cc1ccc(C(=O)N(CCCN)[C@@H](c2nc3cc(Cl)ccc3c(=O)n2Cc2ccccc2)C(C)C)cc1 [ispinesib]
An outline of the steps:
as §1

Compound in assay [6]: Cn1cc(-c2ccc3nnc(C(F)(F)c4ccc5ncccc5c4)n3n2)cn1
An outline of the steps: as §1

Compound in assay [7]: C[C@H](C1=CC=C(C=C1)C(=O)NC2=C3C=CNC3=NC=C2)N
A digest of the protocol: as §1

Compound in assay [8]: Cc1cc(SCc2sc(-c3ccc(C(F)(F)F)cc3)nc2C)ccc1OCC(=O)O
An outline of the steps: as §1

Compound in the next assay: Cc1nc(Nc2ncc(C(=O)Nc3c(C)cccc3Cl)s2)cc(N2CCN(CCO)CC2)n1 [dasatinib]
A digest of the protocol:
as §1

Compound in assay [9]: Cn1cc(-c2ccc3c(c2)CCN3C(=O)Cc2cccc(C(F)(F)F)c2)c2c(N)ncnc21
A digest of the protocol: as §1

Compound in another assay: C[C@H](Nc1ncnc2nc[nH]c12)c1cc2cccc(Cl)c2c(=O)n1-c1ccccc1 [duvelisib]
A digest of the protocol: as §1

This is one part of the list.

In the case of SCGB2A2 (UniProt Q13296), the log2 fold change in assay [1] was inactive: -0.123; with crizotinib it was inactive: 0.585; in [2] it was inactive: 0.064; with gandotinib, inactive: -0.282; in the assay with tozasertib, inactive: 0.276; with doramapimod it was inactive: -0.162. The log2 fold change was inactive: 0.535 in the assay with bafetinib; inactive: -0.205 in assay [3]; inactive: -0.307 in the assay with nilotinib; inactive: 0.161 in [4]; inactive: -0.109 in assay [5]; inactive: -0.081 with tipifarnib. Besides, the log2 fold change with mubritinib was inactive: -0.296.
As to S100A1 (UniProt P23297), the log2 fold change in assay [1] was inactive: -0.091; in the assay with crizotinib it was inactive: 0.046; in assay [2], inactive: 0.124; with doramapimod, inactive: -0.007; with ispinesib, inactive: -0.226; in the assay with bafetinib, inactive: 0.012. For the same target, the log2 fold change with nilotinib is inactive: -0.063; in assay [4], inactive: 0.052; in assay [5], inactive: 0.033; in assay [6] it was inactive: 0.047.
SDC3 (UniProt O75056): the log2 fold change was inactive: -0.047 in [1]; inactive: 0.057 in [2]; inactive: 0.151 in [7]; inactive: -0.193 with gandotinib; inactive: -0.19 in assay [8]; inactive: 0.419 in [3]. Also, the log2 fold change is inactive: -0.004 with nilotinib; inactive: 0.07 in assay [4]; inactive: 0.073 in the assay with dasatinib; inactive: -0.036 in [5]; inactive: -0.019 in [9].
For the target SDCBP (UniProt O00560), the log2 fold change was inactive: -0.003 in assay [1]; inactive: -0.216 with crizotinib; inactive: 0.101 in assay [2]; inactive: -0.043 in [7]; inactive: 0.094 in the assay with gandotinib; inactive: 0.086 in assay [8]. In addition, the log2 fold change was inactive: -0.006 with doramapimod; active: -0.361 in the assay with ispinesib; inactive: -0.229 in the assay with bafetinib; inactive: 0.038 in assay [3]; inactive: 0.015 in the assay with nilotinib; inactive: -0.021 in assay [4]. The log2 fold change in the assay with dasatinib was inactive: -0.12; in assay [5], inactive: 0; in [9], inactive: -0.076; in [6], inactive: -0.058; with tipifarnib, inactive: 0.018; in the assay with mubritinib, inactive: 0.025.
On to RUFY1 (UniProt Q96T51), for which the log2 fold change is inactive: -0.04 in assay [1]; inactive: -0.003 with crizotinib; inactive: -0.034 in assay [2]; inactive: 0.075 in assay [7]; inactive: -0.029 with gandotinib; inactive: 0.118 in assay [8]. The log2 fold change with doramapimod was inactive: 0.032; in the assay with ispinesib it was inactive: -0.065; with bafetinib, inactive: -0.052; in [3], inactive: 0.077; with nilotinib, inactive: -0.066; in [4], inactive: -0.086. The log2 fold change with dasatinib is inactive: -0.11; in [5] it was inactive: 0.067; in assay [9], inactive: -0.061; in [6] it was inactive: 0.05; with tipifarnib, inactive: -0.062; with mubritinib it was inactive: -0.001.
Turning to RRP1B (UniProt Q14684), the log2 fold change in assay [1] is inactive: -0.023; with crizotinib, inactive: -0.382; in assay [2] it was inactive: -0.194; with duvelisib it was inactive: -0.395; with gandotinib it was inactive: 0.071; with tozasertib, inactive: 0.018. In addition, the log2 fold change is inactive: 0.389 in assay [8]; inactive: -0.004 with doramapimod; inactive: -0.043 in assay [3]; inactive: 0.023 with dasatinib; inactive: 0.033 in the assay with mubritinib.
Regarding SAMSN1 isoform 3 (UniProt Q9NSI8), the log2 fold change in [1] was inactive: 0.024; with crizotinib, inactive: -0.082; in assay [2], inactive: 0.043; in [7], inactive: -0.027; with gandotinib it was inactive: -0.077; in assay [8], inactive: 0.019. Also, the log2 fold change with doramapimod was inactive: -0.052; in the assay with ispinesib, inactive: -0.069; with bafetinib it was inactive: -0.049; in assay [3], inactive: 0.04; with nilotinib, inactive: -0.036; in assay [4], inactive: -0.169. Moreover, the log2 fold change was inactive: -0.09 with dasatinib; inactive: 0.02 in [5]; inactive: 0.029 in assay [9]; inactive: 0.037 in assay [6]; inactive: -0.015 with tipifarnib; inactive: 0.048 with mubritinib.
As to SCPEP1 (UniProt Q9HB40), the log2 fold change in assay [1] was inactive: -0.03; in the assay with crizotinib, active: -0.254; in assay [2], inactive: -0.041; in assay [7], inactive: -0.028; with gandotinib, inactive: 0.127; in assay [8], inactive: 0.032. The log2 fold change was inactive: -0.032 with doramapimod; inactive: -0.163 with ispinesib; active: -0.499 with bafetinib; inactive: -0.013 in assay [3]; inactive: 0.028 with nilotinib; inactive: -0.006 in assay [4]. Moreover, the log2 fold change with dasatinib is inactive: -0.007; in assay [5], inactive: -0.004; in [9] it was inactive: 0.023; in [6], inactive: 0.034; in the assay with tipifarnib, inactive: 0.026; with mubritinib, inactive: 0.04.

Source of the values: the supplement of paper PMC10849652.
